These are yes or no findings as the source states them, for the method shown. A result given as binding can be weak or reduced; the word gives no strength.
Molecular target: GST::RAB-7 (C. elegans) (UniProt Q23146)
Test: pull-down

Protein sequences, listed by entry. Tags and fused reporters are not part of them. Lines headed by an entry give the natural chain unless they say otherwise; changes in a name come on top.
UniProt Q23146: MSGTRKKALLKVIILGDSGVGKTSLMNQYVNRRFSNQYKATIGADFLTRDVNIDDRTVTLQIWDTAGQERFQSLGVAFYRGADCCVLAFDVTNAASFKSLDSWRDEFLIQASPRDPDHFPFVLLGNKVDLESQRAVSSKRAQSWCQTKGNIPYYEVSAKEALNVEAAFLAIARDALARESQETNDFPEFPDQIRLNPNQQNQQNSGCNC

Substance: 6HIS::MYC::RAB-1::6HIS (from UniProt Q9UAQ6)
- binding: binds

— publication doi:10.1101/2025.01.22.634223
